Reference: paper PMC4694903
These are yes or no findings as the source states them, for the method shown. For part of these data: In cells and extracts the contact can be indirect. Some results given as binding are weak or reduced against the parent protein; the word gives no strength. For part of these data: Tags and fused reporters may be left off the sequences shown. Blank lines part the entries; values can stand above or below the molecule they belong to.

Sequences of proteins named here, by UniProt entry; tags and fusion partners are left off. A change or cut given only in a name is not applied to a line headed by its entry. A line that says so, or that is headed by a name, gives the form on record, which may keep a tag or linker.
CD44 Ser325 to aspartate mutant fused with the C-terminal half of ubiquitin linked to PLV (P16070, form named): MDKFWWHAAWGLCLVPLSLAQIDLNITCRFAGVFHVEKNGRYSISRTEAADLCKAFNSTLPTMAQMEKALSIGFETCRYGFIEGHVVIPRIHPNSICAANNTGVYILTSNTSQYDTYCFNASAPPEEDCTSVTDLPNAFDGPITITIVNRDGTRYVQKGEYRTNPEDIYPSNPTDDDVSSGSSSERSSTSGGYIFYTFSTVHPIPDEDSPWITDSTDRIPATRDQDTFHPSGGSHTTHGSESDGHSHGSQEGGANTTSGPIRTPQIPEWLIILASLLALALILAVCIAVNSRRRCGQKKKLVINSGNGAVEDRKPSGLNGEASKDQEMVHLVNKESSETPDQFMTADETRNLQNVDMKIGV
CD44 Ser291Asp mutant fused with the C-terminal half of ubiquitin linked to PLV (P16070, form named): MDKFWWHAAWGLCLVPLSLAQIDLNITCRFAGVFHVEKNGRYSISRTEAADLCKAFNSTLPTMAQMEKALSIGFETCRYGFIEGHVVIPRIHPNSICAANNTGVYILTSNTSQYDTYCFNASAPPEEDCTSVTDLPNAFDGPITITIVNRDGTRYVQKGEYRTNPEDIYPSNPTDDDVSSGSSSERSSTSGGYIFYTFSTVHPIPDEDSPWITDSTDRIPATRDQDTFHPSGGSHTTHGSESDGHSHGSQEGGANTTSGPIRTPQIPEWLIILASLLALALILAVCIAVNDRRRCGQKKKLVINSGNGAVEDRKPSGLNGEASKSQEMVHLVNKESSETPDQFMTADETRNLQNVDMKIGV
CD44 Ser291Ala mutant fused with the C-terminal half of ubiquitin linked to PLV (P16070, form named): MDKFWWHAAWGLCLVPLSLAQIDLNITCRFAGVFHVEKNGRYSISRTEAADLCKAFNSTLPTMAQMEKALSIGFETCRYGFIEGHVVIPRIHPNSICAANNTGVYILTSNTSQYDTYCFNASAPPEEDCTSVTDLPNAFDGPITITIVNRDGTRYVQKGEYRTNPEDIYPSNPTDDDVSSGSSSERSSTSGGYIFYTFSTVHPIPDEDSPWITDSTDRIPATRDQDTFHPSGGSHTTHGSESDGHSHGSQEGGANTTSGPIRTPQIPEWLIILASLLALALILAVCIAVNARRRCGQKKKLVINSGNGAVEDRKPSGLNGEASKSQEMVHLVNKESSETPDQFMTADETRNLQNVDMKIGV
CD44 standard isoform (CD44s), wild type, fused with the C-terminal half of ubiquitin linked to PLV (P16070, form named): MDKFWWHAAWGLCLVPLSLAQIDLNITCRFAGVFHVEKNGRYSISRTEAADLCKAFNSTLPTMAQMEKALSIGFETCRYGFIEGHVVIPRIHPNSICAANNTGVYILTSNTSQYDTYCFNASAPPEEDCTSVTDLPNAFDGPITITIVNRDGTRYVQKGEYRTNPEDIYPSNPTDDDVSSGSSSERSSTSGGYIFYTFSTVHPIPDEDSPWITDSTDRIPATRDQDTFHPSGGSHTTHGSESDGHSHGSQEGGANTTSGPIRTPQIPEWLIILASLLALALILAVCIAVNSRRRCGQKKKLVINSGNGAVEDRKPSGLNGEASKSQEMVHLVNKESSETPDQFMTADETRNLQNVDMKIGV
CD44 Ser325Ala mutant fused with the C-terminal half of ubiquitin linked to PLV (P16070, form named): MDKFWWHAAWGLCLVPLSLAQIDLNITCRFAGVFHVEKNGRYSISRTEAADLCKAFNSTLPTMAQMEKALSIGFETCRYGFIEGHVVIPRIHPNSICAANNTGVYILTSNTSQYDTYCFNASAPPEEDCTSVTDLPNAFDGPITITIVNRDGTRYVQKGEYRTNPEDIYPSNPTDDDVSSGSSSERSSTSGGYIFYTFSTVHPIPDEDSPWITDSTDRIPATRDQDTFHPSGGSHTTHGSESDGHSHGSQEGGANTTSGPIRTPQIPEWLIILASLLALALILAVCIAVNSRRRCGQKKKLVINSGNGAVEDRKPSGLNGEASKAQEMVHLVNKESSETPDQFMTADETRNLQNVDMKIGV
UniProt P08183: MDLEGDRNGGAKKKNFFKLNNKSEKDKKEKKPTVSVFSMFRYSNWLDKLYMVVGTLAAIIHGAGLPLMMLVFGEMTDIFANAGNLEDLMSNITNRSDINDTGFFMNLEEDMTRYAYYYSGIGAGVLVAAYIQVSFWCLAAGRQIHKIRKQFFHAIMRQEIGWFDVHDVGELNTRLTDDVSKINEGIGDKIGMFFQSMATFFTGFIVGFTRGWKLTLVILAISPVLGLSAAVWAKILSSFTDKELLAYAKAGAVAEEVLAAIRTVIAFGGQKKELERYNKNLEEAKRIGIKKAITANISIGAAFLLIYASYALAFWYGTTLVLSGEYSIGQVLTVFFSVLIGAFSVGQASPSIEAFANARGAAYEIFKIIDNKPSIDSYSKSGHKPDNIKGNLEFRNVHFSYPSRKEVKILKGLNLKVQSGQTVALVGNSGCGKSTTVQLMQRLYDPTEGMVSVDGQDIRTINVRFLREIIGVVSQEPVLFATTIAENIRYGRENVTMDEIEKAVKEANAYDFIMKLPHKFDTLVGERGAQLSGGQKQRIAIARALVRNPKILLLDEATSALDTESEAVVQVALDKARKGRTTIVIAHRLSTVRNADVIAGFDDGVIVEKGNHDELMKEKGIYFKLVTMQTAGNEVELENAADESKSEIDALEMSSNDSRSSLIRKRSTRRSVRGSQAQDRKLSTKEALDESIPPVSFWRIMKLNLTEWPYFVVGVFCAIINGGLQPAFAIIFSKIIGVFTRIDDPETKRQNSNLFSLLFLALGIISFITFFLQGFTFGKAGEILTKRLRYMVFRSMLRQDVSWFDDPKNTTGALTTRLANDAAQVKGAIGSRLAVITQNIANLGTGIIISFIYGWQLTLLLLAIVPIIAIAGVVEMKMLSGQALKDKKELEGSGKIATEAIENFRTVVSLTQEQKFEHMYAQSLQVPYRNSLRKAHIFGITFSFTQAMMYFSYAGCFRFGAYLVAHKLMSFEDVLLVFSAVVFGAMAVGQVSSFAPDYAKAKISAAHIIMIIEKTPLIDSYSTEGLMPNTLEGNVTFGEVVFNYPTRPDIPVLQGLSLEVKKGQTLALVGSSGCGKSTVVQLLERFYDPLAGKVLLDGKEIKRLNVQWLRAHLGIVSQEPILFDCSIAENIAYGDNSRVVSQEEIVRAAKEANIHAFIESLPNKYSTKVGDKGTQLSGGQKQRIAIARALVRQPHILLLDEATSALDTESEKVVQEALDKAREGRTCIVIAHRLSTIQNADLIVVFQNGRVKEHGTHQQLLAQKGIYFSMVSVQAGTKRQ

Tests used:
[1] = target: CD44 Ser325 to aspartate mutant fused with the C-terminal half of ubiquitin linked to PLV (human) (UniProt P16070); assay: two-hybrid; split ubiquitin yeast two-hybrid (Dual membrane system, Dualsystems Biotech) in S. cerevisiae DSY-1; MDR1 fused with the N-terminal half of ubiquitin, CD44 with the C-terminal half linked to PLV; reporters HIS3 and lacZ; leucine-tryptophan-histidine triple selection plates with 3mM 3-aminotrazole
[2] = target: CD44 Ser291Asp mutant fused with the C-terminal half of ubiquitin linked to PLV (human) (UniProt P16070); assay: as above
[3] = target: CD44 Ser291Ala mutant fused with the C-terminal half of ubiquitin linked to PLV (human) (UniProt P16070); assay: as above
[4] = target: CD44 standard isoform (CD44s), wild type, fused with the C-terminal half of ubiquitin linked to PLV (human) (UniProt P16070); assay: as above
[5] = target: CD44 Ser325Ala mutant fused with the C-terminal half of ubiquitin linked to PLV (human) (UniProt P16070); assay: as above
[6] = target: His-tagged P-glycoprotein (UniProt P08183); assay: co-IP; HEK293T cells transfected with His-tagged P-gp and myc-tagged FBXO21, lysed after 48 hrs; whole cell lysates subjected to reciprocal immunoprecipitation and immunoblotted

binding [1]: binds
binding [2]: binds
binding [3]: binds
binding [4]: binds
binding [5]: binds
Molecule: P-glycoprotein (MDR1 gene product) fused with the N-terminal half of ubiquitin (from UniProt P08183 1-1280)

binding [6]: binds
B1: Myc-tagged FBXO21 (protein, UniProt O94952 1-628)
chain: MAAAAVDSAMEVVPALAEEAAPEVAGLSCLVNLPGEVLEYILCCGSLTAADIGRVSSTCRRLRELCQSSGKVWKEQFRVRWPSLMKHYSPTDYVNWLEEYKVRQKAGLEARKIVASFSKRFFSEHVPCNGFSDIENLEGPEIFFEDELVCILNMEGRKALTWKYYAKKILYYLRQQKILNNLKAFLQQPDDYESYLEGAVYIDQYCNPLSDISLKDIQAQIDSIVELVCKTLRGINSRHPSLAFKAGESSMIMEIELQSQVLDAMNYVLYDQLKFKGNRMDYYNALNLYMHQVLIRRTGIPISMSLLYLTIARQLGVPLEPVNFPSHFLLRWCQGAEGATLDIFDYIYIDAFGKGKQLTVKECEYLIGQHVTAALYGVVNVKKVLQRMVGNLLSLGKREGIDQSYQLLRDSLDLYLAMYPDQVQLLLLQARLYFHLGIWPEKSFCLVLKVLDILQHIQTLDPGQHGAVGYLVQHTLEHIERKKEEVGVEVKLRSDEKHRDVCYSIGLIMKHKRYGYNCVIYGWDPTCMMGHEWIRNMNVHSLPHGHHQPFYNVLVEDGSCRYAAQENLEYNVEPQEISHPDVGRYFSEFTGTHYIPNAELEIRYPEDLEFVYETVQNIYSAKKENIDE
